Data as given in PubChem BioAssay AID1259254 (NCATS, 2017).

- Assay: 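Finding genes that stop cells copying their DNA twice in one cycle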 (primary screen)
- Cell system: human HCT116 colorectal cancer cells
- Reagent: single siRNA against human genes
- Time to read-out: 3 days
- Measured: 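Nuclei stained with Hoechst and imaged; cell-cycle phase assigned by DNA content; G2 share scaled per plate, non-targeting siRNA 0%, GMNN siRNA 100%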
- Reading the numbers: G2 robust z-score and G2 cells, % of GMNN control: higher = more G2 cells, more excess DNA replication; raw share of cells in G2: higher = larger share of cells with G2 DNA content
- Rule for the call: 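Active siRNAs have a G2 robust z of 5 or more median absolute deviations over the median, which in these data means about 38% or higher of GMNN control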
Here is a random part of about 59,000 reagents tested. Of all reagents, about 1,550 (2.6%) are marked active. 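G2 share is only a proxy for re-replication; each gene was hit by three separate siRNAs, and active genes were retested.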 Raw values are not corrected between plates. Entries without a mark were called inactive. The numbers tell different reagents against one gene apart. The record does not give: the amount of reagent.

Gene,reagent,G2 robust z-score,"G2 cells, % of GMNN control",raw share of cells in G2 (%)
ERRFI1,1,0.136,3.93,5.01
ERRFI1,2,-0.246,1.24,4.79
ERRFI1,3,2.97,23.8,11.1
PTPRD,1,-1.12,-4.9,3.2
PTPRD,2,-0.763,-2.4,3.58
PTPRD,3,-0.761,-2.39,2.78
CHRD,1,-0.774,-2.48,4.03
CHRD,2,-0.299,0.862,4.24
CHRD,3,2.05,17.4,9.49
COL9A2,1,-1.16,-5.18,1.4
COL9A2,2,1.49,13.4,11.1
COL9A2,3,-0.556,-0.947,2.76
HDC,1,1.53,13.7,10
HDC,2,-1.15,-5.1,3.74
HDC,3,-0.459,-0.261,4.11
ROBO2,1,-0.918,-3.49,3.49
ROBO2,2,1.83,15.9,10.5
ROBO2,3,-0.957,-3.76,1.99
MYOF,1,-0.839,-2.94,3.31
MYOF,2,0.0327,3.2,5.32
MYOF,3,1.15,11,7.16
YES1,1,0.0651,3.43,6.65
YES1,2,1.51,13.6,10.1
YES1,3,0.418,5.91,5.57
NAA35,1,3.47,27.4,14.2
NAA35,2,0.829,8.8,9.29
NAA35,3,-0.362,0.418,4.49
LINC00886,1,2.26,18.9,11.5
LINC00886,2,-0.0943,2.3,4
LINC00886,3,0.4,5.78,5.28
PEAR1,1,1.28,12,7.22
PEAR1,2,1.8,15.6,8.58
PEAR1,3,-0.559,-0.963,3.19
FOXF2,1,-1.41,-6.95,2.71
FOXF2,2,0.627,7.38,8.07
FOXF2,3,0.852,8.96,6.85
MAGEE2,1,0.0278,3.16,5.37
MAGEE2,2,-0.792,-2.6,2.28
MAGEE2,3,2.12,17.9,9.05
CBX3,1,0.926,9.48,10.2
CBX3,2,-0.689,-1.88,3.22
CBX3,3,0.378,5.63,6.04
RBM42,1,-0.155,1.88,4.91
RBM42,2,1.92,16.4,10.2
RBM42,3,-0.43,-0.0591,5.62
EVI5,1,0.93,9.51,9.35
EVI5,2,1.36,12.5,8.86
EVI5,3,-0.992,-4.01,1.93
GPR146,1,0.535,6.73,5.33
GPR146,2,-1.24,-5.75,3.79
GPR146,3,6.94 (active),51.8,22.6
LMNB2,1,-1.54,-7.87,2.15
LMNB2,2,2.26,18.9,11
LMNB2,3,0.0141,3.07,5.92
GUK1,1,-0.482,-0.424,5.27
GUK1,2,-0.747,-2.29,3.22
GUK1,3,0.189,4.3,7.03
PLEKHM3,1,0.984,9.89,7.16
PLEKHM3,2,-0.793,-2.61,2.27
PLEKHM3,3,-0.939,-3.64,3.07
HMX3,1,-0.754,-2.34,3.43
HMX3,2,-0.701,-1.97,5.05
HMX3,3,0.154,4.05,6.54
N4BP2,1,-0.332,0.632,4.77
N4BP2,2,-0.836,-2.92,2.93
N4BP2,3,0.291,5.01,4.74
PDE6G,1,-0.772,-2.46,2.76
PDE6G,2,-0.573,-1.06,4.45
PDE6G,3,1.72,15.1,8.85

Records listed above called active:
Gene,reagent,G2 robust z-score,"G2 cells, % of GMNN control",raw share of cells in G2 (%)
GPR146,3,6.94 (active),51.8,22.6
